Assay results taken from article PMC5444711.
Results are given in words; binding and its absence hold for the method and conditions named. In cells and extracts the contact can be indirect. Some binding calls cover weakened binding; strength is not graded here. Sequences can lack the tags named with a protein.

Target: T1, HA-tagged PIGN (Phosphatidylinositol Glycan Anchor Biosynthesis, Class N) (human) (UniProt O95427)
T1 sequence: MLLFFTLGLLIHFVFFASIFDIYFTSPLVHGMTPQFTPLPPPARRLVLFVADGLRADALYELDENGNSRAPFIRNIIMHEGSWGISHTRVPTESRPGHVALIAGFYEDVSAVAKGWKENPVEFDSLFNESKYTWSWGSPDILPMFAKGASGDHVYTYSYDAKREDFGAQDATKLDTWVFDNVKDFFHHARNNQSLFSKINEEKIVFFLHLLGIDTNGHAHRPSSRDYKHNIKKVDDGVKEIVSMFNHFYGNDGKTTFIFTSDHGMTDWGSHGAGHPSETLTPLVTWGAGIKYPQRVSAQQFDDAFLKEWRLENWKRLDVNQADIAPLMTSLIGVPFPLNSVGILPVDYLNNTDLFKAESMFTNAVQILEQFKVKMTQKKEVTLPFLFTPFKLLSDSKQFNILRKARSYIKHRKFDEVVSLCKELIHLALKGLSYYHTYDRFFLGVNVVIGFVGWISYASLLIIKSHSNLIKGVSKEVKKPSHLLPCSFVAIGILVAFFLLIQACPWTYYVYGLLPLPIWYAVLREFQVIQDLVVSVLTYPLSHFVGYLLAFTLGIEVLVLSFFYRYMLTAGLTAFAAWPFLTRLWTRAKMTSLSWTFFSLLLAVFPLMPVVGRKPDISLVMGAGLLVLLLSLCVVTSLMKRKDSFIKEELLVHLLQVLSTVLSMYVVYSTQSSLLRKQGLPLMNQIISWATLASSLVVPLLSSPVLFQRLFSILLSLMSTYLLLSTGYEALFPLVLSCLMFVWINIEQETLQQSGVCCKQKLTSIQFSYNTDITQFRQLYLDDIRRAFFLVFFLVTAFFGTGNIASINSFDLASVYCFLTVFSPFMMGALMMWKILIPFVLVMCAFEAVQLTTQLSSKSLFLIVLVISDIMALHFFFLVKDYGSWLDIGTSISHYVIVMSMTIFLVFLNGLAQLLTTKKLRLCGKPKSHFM
Experiment: pull-down; HA-tag pulldown assay from lysate of CRISPR/Cas9 PIGN KO HEK293 cells transfected with HA-tagged PIGN; several times post-transfection (highest at 48 hours); MAD1 detected by blot; input 10% of total protein lysate

- binding: binds
B1: spindle assembly checkpoint protein MAD1 (protein, UniProt Q9Y6D9 1-718)
chain: MEDLGENTMVLSTLRSLNNFISQRVEGGSGLDISTSAPGSLQMQYQQSMQLEERAEQIRSKSHLIQVEREKMQMELSHKRARVELERAASTSARNYEREVDRNQELLTRIRQLQEREAGAEEKMQEQLERNRQCQQNLDAASKRLREKEDSLAQAGETINALKGRISELQWSVMDQEMRVKRLESEKQELQEQLDLQHKKCQEANQKIQELQASQEARADHEQQIKDLEQKLSLQEQDAAIVKNMKSELVRLPRLERELKQLREESAHLREMRETNGLLQEELEGLQRKLGRQEKMQETLVGLELENERLLAKLQSWERLDQTMGLSIRTPEDLSRFVVELQQRELALKDKNSAVTSSARGLEKARQQLQEELRQVSGQLLEERKKRETHEALARRLQKRVLLLTKERDGMRAILGSYDSELTPAEYSPQLTRRMREAEDMVQKVHSHSAEMEAQLSQALEELGGQKQRADMLEMELKMLKSQSSSAEQSFLFSREEADTLRLKVEELEGERSRLEEEKRMLEAQLERRALQGDYDQSRTKVLHMSLNPTSVARQRLREDHSQLQAECERLRGLLRAMERGGTVPADLEAAAASLPSSKEVAELKKQVESAELKNQRLKEVFQTKIQEFRKACYTLTGYQIDITTENQYRLTSLYAEHPGDCLIFKATSPSGSKMQLLETEFSHTVGELIEVHLRRQDSIPAFLSSLTLELFSRQTVA
